The supplement of paper PMC12067093, “Discovery and optimisation of a covalent ligand for TRIM25 and its application to targeted protein ubiquitination” (Chemical Science, 2025)
The list shows a part of the results.

Compound: Cc1cc(ccc1-c1ccccc1)C(=O)N1CCCN(CC1)C(=O)CCl [compound 10]
Experiment: probe-labelled cysteine peptide fold change vs DMSO (competition) (log2 fold change); higher = less target engagement (more negative = stronger competition)
Conditions: THP-1, incubation time: 4 h
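Note: competitive profiling in live THP-1 cells: cysteine peptides tagged with an iodoacetamide desthiobiotin (IA-DTB) probe, intensity after compound treatment relative to DMSO-treated cells.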

Target | probe-labelled cysteine peptide fold change (10 µM) | probe-labelled cysteine peptide fold change (50 µM)
NUP210_Q8TEM1_543_VYVIEPHSMEFAPCQVEAR (UniProt Q8TEM1) | -0.0295 | -0.0838
NUDT18_Q6ZVK8_100_EVKEEAGLHCEPETLLSVEER (UniProt Q6ZVK8) | -0.346 | -0.626
NUP210_Q8TEM1_767_LTLAPVYTSPQLDMSCPLLQQNK (UniProt Q8TEM1) | -0.0587 | 0.226
OLA1_Q9NTK5_187_KLKPEYDIMCK (UniProt Q9NTK5) | -0.145 | -0.776
NUP107_P57740_442_QLLPVCDTWEDTVWAYFR (UniProt P57740) | 0.39 | 0.267
NUP50_Q9UKX7_181_HVNTNPLCDLTPIFK (UniProt Q9UKX7) | 0.0644 | 0.119
OFD1_O75665_503_AIVVEHEEFESCR (UniProt O75665) | -0.063 | -0.338
NUBP2_Q9Y5Y2_54_KVGILDVDLCGPSIPR (UniProt Q9Y5Y2) | -0.0687 | -0.0478
OLA1_Q9NTK5_117_GAHNGQGLGNAFLSHISACDGIFHLTR (UniProt Q9NTK5) | 0.031 | -0.0398
ODR4_Q5SWX8_77_LDNLDEEWATEHACQVSR (UniProt Q5SWX8) | 0.205 | 0.194
NUP188_Q5SRE5_1283_DGVCVLGLHLAK (UniProt Q5SRE5) | -0.0739 | -0.11
NUP205_Q92621_530_MLQGLANGPQCAHYCFSLLK (UniProt Q92621) | 0.0195 | 0.207
NUP205_Q92621_1275_LLQCLHAK (UniProt Q92621) | 0.0221 | 0.00907
NUSAP1_Q9BXS6_64_KGNENQDESQTSASSCDETEIQISNQEEAERQPLGHVTK (UniProt Q9BXS6) | -0.424 | -0.158
OARD1_Q9Y530_24_GDLFACPK (UniProt Q9Y530) | 0.271 | -0.025
NUP43_Q8NFH3_362_SLSVNTLDVLGPCLVCGTDAEAIYVTR (UniProt Q8NFH3) | 0.0576 | 0.0801
NUP50_Q9UKX7_151_ACVGNAYHK (UniProt Q9UKX7) | -0.233 | -1.01
OGFOD1_Q8N543_64_RTPFSHEVIVMDMDPFLHCVIPNFIQSQDFLEGLQK (UniProt Q8N543) | 0.0867 | -0.154
OGDH_Q02218_395_AEQFYCGDTEGK (UniProt Q02218) | -0.0827 | 0.233
NUP43_Q8NFH3_365_SLSVNTLDVLGPCLVCGTDAEAIYVTR (UniProt Q8NFH3) | 0.403 | 0.827
NUP98_P52948_1347_ISEACSLAQQSGDHR (UniProt P52948) | 0.0785 | 0.228

Target | probe-labelled cysteine peptide fold change (10 µM) | probe-labelled cysteine peptide fold change (50 µM)
NUP155_O75694_551_LHQEDQACATCLILACSTAACDREVSAWATR (UniProt O75694) | 0.0968 | 0.148
OBSL1_O75147_362_EHGIAVLECK (UniProt O75147) | 0.0287 | 0.0424
NUP88_Q99567_447+454_CFVEHILCTK (UniProt Q99567) | -0.105 | -0.105
NUP54_Q7Z3B4_171_GYFNNNIPPVEFTQENPFCR (UniProt Q7Z3B4) | -0.213 | -0.013
OGA_O60502_618_FEEMCGLVMGMFTR (UniProt O60502) | 0.0527 | 0.0614
OGFOD1_Q8N543_143_IDLESTIDMSCAK (UniProt Q8N543) | 0.0696 | 0.281
NUP160_Q12769_529_NLQQEFWCK (UniProt Q12769) | 0.228 | 0.239
NUMA1_Q14980_1367_HLCQQLQAEQAAAEKR (UniProt Q14980) | -0.138 | -0.287
NUP160_Q12769_318_EQMCLMVADMLEYVPVKK (UniProt Q12769) | 0.242 | 0.224
NUMB_P49757_58_GMHICEDAVK (UniProt P49757) | -0.0394 | 0.0727
NUBP1_P53384_8_MEEVPHDCPGADSAQAGR (UniProt P53384) | 1.37 | 1.35
NUP37_Q8NFH4_311_TLPLCVIGGDHK (UniProt Q8NFH4) | 0.0128 | -0.043
NUDT19_A8MXV4_220_RFDTAFFLCCLR (UniProt A8MXV4) | -0.131 | -0.0305
NUP98_P52948_1636_HLEALCLFK (UniProt P52948) | 0.0131 | 0.0374
NUP98_P52948_1027_ADTSQEICSPR (UniProt P52948) | -0.0594 | 0.217
NUBP2_Q9Y5Y2_196_VMGIVENMSGFTCPHCTECTSVFSR (UniProt Q9Y5Y2) | 0.0618 | -0.172
NUP85_Q9BW27_230_EADASPASAGICR (UniProt Q9BW27) | -0.0142 | -0.00907
NUDT12_Q9BQG2_18_QEIVTQFHCSAAEGDIAK (UniProt Q9BQG2) | -0.164 | -0.409
OCRL_Q01968_611_LNDSQYCK (UniProt Q01968) | 0.0459 | 0.00174
NUDT12_Q9BQG2_177_LCQLNYTDIK (UniProt Q9BQG2) | 0.0693 | -0.0214
NUP50_Q9UKX7_333_PLEGQAEGDSGECK (UniProt Q9UKX7) | -0.049 | 0.167

Four entries picked at random from those above, as already listed:
Target | probe-labelled cysteine peptide fold change (10 µM) | probe-labelled cysteine peptide fold change (50 µM)
NUBP2_Q9Y5Y2_196_VMGIVENMSGFTCPHCTECTSVFSR (UniProt Q9Y5Y2) | 0.0618 | -0.172
NUMB_P49757_58_GMHICEDAVK (UniProt P49757) | -0.0394 | 0.0727
NUP54_Q7Z3B4_171_GYFNNNIPPVEFTQENPFCR (UniProt Q7Z3B4) | -0.213 | -0.013
OGFOD1_Q8N543_143_IDLESTIDMSCAK (UniProt Q8N543) | 0.0696 | 0.281

(next part)

Target | probe-labelled cysteine peptide fold change (10 µM) | probe-labelled cysteine peptide fold change (50 µM)
OAS2_P29728_361_CFLEQIDSAVNIIR (UniProt P29728) | -0.201 | 0.0545
OGDH_Q02218_283_RFGLEGCEVLIPALK (UniProt Q02218) | 0.0129 | 0.167
ODF2_Q5BJF6_327_DKEVEELLQEIQCEK (UniProt Q5BJF6) | -0.0625 | -0.368
NUDCD1_Q96RS6_111_EVFRLPTDLTACDNR (UniProt Q96RS6) | -0.159 | -0.335
NUP188_Q5SRE5_1270_DSMETDDCSR (UniProt Q5SRE5) | -0.22 | 0.0252
NUMA1_Q14980-4_1729_SREPQAKPQLDLSIDSLDLSCEEGTPLSITR (UniProt Q14980) | 0.0396 | -0.189
NUP62_P37198_475_DIIEHLNTSGAPADTSDPLQQICK (UniProt P37198) | -0.0257 | 0.0173
NUB1_Q9Y5A7_400_ACDGNVDHAATHITNRR (UniProt Q9Y5A7) | -0.285 | -0.398
NUP43_Q8NFH3_222_QQGNEPSQILSLTGDRVPLHCVDRHPNQQHVVATGGQDGMLSIWDVR (UniProt Q8NFH3) | -0.0632 | -0.223
NXF1_Q9UBU9_588_CLQDNNWDYTR (UniProt Q9UBU9) | 0.252 | 0.41
NUS1_Q96E22_235_QKRPTDLDVDTLASLLSSNGCPDPDLVLK (UniProt Q96E22) | -0.231 | -0.487
NUP50_Q9UKX7_416_ADTNLGNILLNVLIPPNMPCTR (UniProt Q9UKX7) | -0.0173 | -0.0779
OGFOD3_Q6PK18_103_RFEGCTPR (UniProt Q6PK18) | -0.088 | 0.067
OGT_O15294_315_GSVAEAEDCYNTALR (UniProt O15294) | 0.0959 | 0.062
NUDT8_Q8WV74_71_CDPADQDVVHTALR (UniProt Q8WV74) | -0.128 | 0.143
OGA_O60502_596_ANSSVVSVNCK (UniProt O60502) | -0.215 | -0.408
NUMA1_Q14980_1367_HLCQQLQAEQAAAEK (UniProt Q14980) | -0.0708 | 0.0571
NUBP2_Q9Y5Y2_269_ILDATPACLP (UniProt Q9Y5Y2) | -0.1 | -0.133
OCRL_Q01968_679_DYFLTISGNYLPSCFGTSLEALCR (UniProt Q01968) | 0.343 | 0.571
NVL_O15381_460_LPQAFDFCHLAHLTPGFVGADLMALCR (UniProt O15381) | -0.11 | 0.025
NUP98_P52948_1312_WLSCTATPQIEEEVSLTQK (UniProt P52948) | -0.0219 | -0.737

Target | probe-labelled cysteine peptide fold change (10 µM) | probe-labelled cysteine peptide fold change (50 µM)
OAT_P04181_150_VLPMNTGVEAGETACK (UniProt P04181) | 0.0523 | 0.0515
OAS3_Q9Y6K5_956_HWYQQCTK (UniProt Q9Y6K5) | -0.611 | 0.0985
NUP205_Q92621_1216_AQIEQVIANCEHK (UniProt Q92621) | 0.146 | 0.0113
NUMA1_Q14980-4_1729_PQLDLSIDSLDLSCEEGTPLSITR (UniProt Q14980) | -0.124 | 0.388
OGFOD3_Q6PK18_90_FIEVPCSEDYDSHR (UniProt Q6PK18) | -0.116 | 0.234
NUP133_Q8WUM0_702_EVSQVDTICECLLEHEEQVLR (UniProt Q8WUM0) | 0.107 | 0.18
NUP37_Q8NFH4_149_EGQEIASVSDDHTCR (UniProt Q8NFH4) | 0.189 | 0.155
NUP160_Q12769_605_DVICLIK (UniProt Q12769) | 0.651 | -0.214
NVL_O15381_785_CDCYTGADLSALVR (UniProt O15381) | -0.127 | -0.0558
NUDCD1_Q96RS6_67_LRDDQYTLEHMHAFGMYNYLHCDSWYQDSVYYIDTLGR (UniProt Q96RS6) | 0.189 | 0.42
OCRL_Q01968_104_FEIPDEEHCLK (UniProt Q01968) | -0.0346 | 0.129
NUP88_Q99567_561_DIAPPPEECLQLLSR (UniProt Q99567) | -0.146 | 0.267
NUMA1_Q14980_961_QFCSTQAALQAMER (UniProt Q14980) | -0.0783 | -1.25
NUP188_Q5SRE5_9_AAAAGGPCVR (UniProt Q5SRE5) | 0.156 | 0.173
OGFOD1_Q8N543_308_VCEALEHGHVEWSSR (UniProt Q8N543) | 0.0306 | 0.155
NUDT5_Q9UKK9_76_TLHYECIVLVK (UniProt Q9UKK9) | 0.019 | -0.0213
OGDH_Q02218_507_DVVVDLVCYR (UniProt Q02218) | 0.19 | 0.266
NUBP2_Q9Y5Y2_54_VGILDVDLCGPSIPR (UniProt Q9Y5Y2) | 0.00457 | 0.162
NUP93_Q8N1F7_522_SSGQSAQLLSHEPGDPPCLR (UniProt Q8N1F7) | -0.509 | -0.756
NUP85_Q9BW27_265_WQHWHEECER (UniProt Q9BW27) | 0.259 | 0.384
